Reference: article PMC5503561
No constants are given. Whether binding was seen depends on the method and setting. In cells and extracts the contact can be indirect. A result given as binding can be weak or reduced; the word gives no strength.

Protein sequences, listed by entry. Tags and fused reporters are not part of them. Lines headed by an entry give the natural chain unless they say otherwise; changes in a name come on top.
UniProt P55085: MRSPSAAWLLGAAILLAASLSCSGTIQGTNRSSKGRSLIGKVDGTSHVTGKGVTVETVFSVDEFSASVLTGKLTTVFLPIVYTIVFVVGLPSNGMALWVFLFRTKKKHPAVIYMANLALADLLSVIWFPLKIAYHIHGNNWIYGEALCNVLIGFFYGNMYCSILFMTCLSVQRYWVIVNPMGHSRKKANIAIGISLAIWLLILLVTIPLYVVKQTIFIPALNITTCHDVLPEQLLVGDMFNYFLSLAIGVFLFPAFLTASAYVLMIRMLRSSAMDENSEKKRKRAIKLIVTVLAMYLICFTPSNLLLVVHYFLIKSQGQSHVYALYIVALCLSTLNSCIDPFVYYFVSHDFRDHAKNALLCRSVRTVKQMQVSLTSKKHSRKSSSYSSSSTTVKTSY
UniProt O15169: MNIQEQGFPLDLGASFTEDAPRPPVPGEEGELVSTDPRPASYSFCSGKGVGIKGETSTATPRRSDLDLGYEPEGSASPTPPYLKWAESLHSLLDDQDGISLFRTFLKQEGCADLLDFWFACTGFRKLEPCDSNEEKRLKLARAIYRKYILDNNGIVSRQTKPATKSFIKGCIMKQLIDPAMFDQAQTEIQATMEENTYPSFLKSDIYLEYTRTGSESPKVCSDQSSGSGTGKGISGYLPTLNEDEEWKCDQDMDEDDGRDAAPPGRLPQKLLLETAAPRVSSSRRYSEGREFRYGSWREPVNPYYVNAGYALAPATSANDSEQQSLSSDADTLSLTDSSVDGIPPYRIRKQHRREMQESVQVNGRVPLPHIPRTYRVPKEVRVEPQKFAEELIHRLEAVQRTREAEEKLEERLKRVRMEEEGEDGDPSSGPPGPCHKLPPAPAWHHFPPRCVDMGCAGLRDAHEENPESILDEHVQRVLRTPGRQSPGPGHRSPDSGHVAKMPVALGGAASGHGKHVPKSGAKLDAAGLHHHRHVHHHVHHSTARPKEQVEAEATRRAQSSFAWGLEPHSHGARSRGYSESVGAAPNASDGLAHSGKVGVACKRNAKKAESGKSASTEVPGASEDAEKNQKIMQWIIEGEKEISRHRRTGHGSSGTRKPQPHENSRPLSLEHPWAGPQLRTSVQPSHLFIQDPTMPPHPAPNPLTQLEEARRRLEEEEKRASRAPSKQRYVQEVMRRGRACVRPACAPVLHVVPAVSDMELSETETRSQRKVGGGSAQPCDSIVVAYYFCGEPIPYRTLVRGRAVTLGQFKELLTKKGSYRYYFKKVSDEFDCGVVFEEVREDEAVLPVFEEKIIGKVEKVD

Target: Protease-activated receptor-2 (PAR2), wt hPar2 (human) (UniProt P55085)
Assay: co-IP; HEK293T cells transiently transfected, activated with SLIGKV (5 to 30 min); 400 ug cell lysate, antibody to the bait (anti-PAR2, anti-GFP or anti-flg) overnight, protein A-Sepharose 1 h at 4°C, Western blot

In the case of flg-Axin (from UniProt O15169 1-862), the binding is reported as “binds”.
